# Values from PubChem BioAssay AID1259308 (NCATS, 2017)
# Purpose: 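Knock-downs that increase output of a recombinant reporter protein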 (primary screen)
# Cells: human HEK293 embryonic kidney cells stably expressing firefly luciferase (HEK-CMV-Luc2-Hygro)
# Knock-down reagent: single siRNA against human genes, 0.8 pmol siRNA per well
# Timing: 72 h
# Detection: 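Luciferase light (ONE-Glo) measured on one replicate plate set and viability (CellTiter-Glo) on the other, scaled to a negative control siRNA, with robust z-scores and luciferase per cell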
# Direction: total luciferase, z-score and total luciferase, % of control: higher = more reporter protein produced; luciferase per cell, z-score: higher = more reporter output per viable cell
# Hit rule: 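Active when the median/MAD z-score for overall luciferase is greater than 3; a gene was taken forward for validation with new siRNAs if at least two of its three siRNAs passed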
# Calls: active = raised luciferase; inactive = no rise
# Here is one part, drawn at random, of about 59,000 reagents. Over the whole deposit, about 1,510 (2.6%) are marked active. 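Calls use total luciferase alone and ignore viability, so some active siRNAs may act by altering cell number.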 The numbers tell different reagents against one gene apart. Further read-outs or replicates are left out here.
target gene,reagent,"total luciferase, z-score","total luciferase, % of control","luciferase per cell, z-score",Call
AGBL1-AS1 (GeneID 727915),1,-1.42,53.6,-0.614,inactive
AGBL1-AS1 (GeneID 727915),2,-0.54,71.1,-0.214,inactive
AGBL1-AS1 (GeneID 727915),3,0.382,89.5,0.763,inactive
NXPE2 (GeneID 120406),1,-0.76,66.8,-0.706,inactive
NXPE2 (GeneID 120406),2,-0.221,77.5,-0.122,inactive
NXPE2 (GeneID 120406),3,-1.57,50.6,0.739,inactive
YTHDF3 (GeneID 253943),1,0.923,100,0.561,inactive
YTHDF3 (GeneID 253943),2,-0.88,64.4,-0.358,inactive
YTHDF3 (GeneID 253943),3,1.33,108,1.18,inactive
OR4N3P (GeneID 390539),1,2.36,129,2.2,inactive
OR4N3P (GeneID 390539),2,-0.367,74.6,-0.515,inactive
OR4N3P (GeneID 390539),3,2.79,137,1.63,inactive
PDCD7 (GeneID 10081),1,0.0867,83.6,-0.356,inactive
PDCD7 (GeneID 10081),2,-0.408,73.8,-0.348,inactive
PDCD7 (GeneID 10081),3,0.11,84.1,0.149,inactive
UBE2M (GeneID 9040),1,-0.141,79.1,0.195,inactive
UBE2M (GeneID 9040),2,0.0829,83.5,1.18,inactive
UBE2M (GeneID 9040),3,-0.474,72.5,-0.879,inactive
ALG14 (GeneID 199857),1,-0.833,65.3,0.847,inactive
ALG14 (GeneID 199857),2,0.237,86.6,0.375,inactive
ALG14 (GeneID 199857),3,1.03,102,-0.108,inactive
MGA (GeneID 23269),1,-0.744,67.1,-0.308,inactive
MGA (GeneID 23269),2,0.634,94.5,0.266,inactive
MGA (GeneID 23269),3,-0.355,74.8,0.562,inactive

4 entries already listed, ordered by “total luciferase, % of control”, low to high:
target gene,reagent,"total luciferase, z-score","total luciferase, % of control","luciferase per cell, z-score",Call
NXPE2 (GeneID 120406),3,-1.57,50.6,0.739,inactive
YTHDF3 (GeneID 253943),2,-0.88,64.4,-0.358,inactive
YTHDF3 (GeneID 253943),1,0.923,100,0.561,inactive
YTHDF3 (GeneID 253943),3,1.33,108,1.18,inactive
